Data as given in the supplement of paper PMC4683952.
The other results are listed elsewhere or left out. Cut-off read from the data, not from the text of the source: active = 2 or more and inactive = the rest. This data set is noisy: repeats of one test often differ as much as different tests do.

tested on: Lgr5 (MarsCy1-Lgr5-EGFP, U2OS); experiment: cell-surface Lgr5 expression (SCi1 fluorescence, background-subtracted) relative to WT DMSO (fold of DMSO control); higher = more Lgr5 at the plasma membrane; conditions: U2OS MarsCy1-Lgr5-EGFP stable; treatment time: overnight; library: ActiProbe-5K (TimTec); 25 µM

SMILES	cell-surface Lgr5 expression
O=S(=O)(NC1CC2CCC1C2)c1ccc2c(c1)OCCO2 (stereo not drawn)	inactive: 1.32
CC1CC(C(F)(F)C(F)(F)F)n2nc(C(=O)O)cc2N1 (stereo not drawn)	inactive: 1.19
Clc1ccc(-c2nc3sc(-c4ccc(Cl)cc4)nc3s2)cc1	inactive: 1.32
CCCCC(CC)C(=O)Nc1nnc(C(C)C)s1 (stereo not drawn)	inactive: 1.24
CS(=O)(=O)Nc1ccc(F)c(F)c1	inactive: 1.04
Nc1cc(=O)[nH]c(=S)[nH]1	inactive: 1.22
O=C(O)c1c(F)c(F)c(F)c(F)c1C(=O)O	inactive: 0.899
CC(=C/CCC1(C(NC(O1)=O)(O)C)C)/C (stereo not drawn)	inactive: 1.01
CC1=CNc2nonc2NC1=O	inactive: 1.23
O=C(Cn1cc([N+](=O)[O-])cn1)N1CCOCC1	inactive: 1.62
O=c1c2ccccc2cnn1Cc1ccon1	inactive: 1.08
O=C(N/N=C/C=C/c1ccco1)c1cnccn1	inactive: 1.02
CC1=CC(C)(C)NC(=S)N1c1ccc(C(C)C)cc1	inactive: 0.929
O=[N+]([O-])c1ccc2c(c1)COc1ccccc1O2	inactive: 0.986
Cc1cc(C(=O)N/N=C\c2ccco2)c(C)o1	inactive: 1.18
CC(=O)/N=C1\SCC(=O)N1c1nonc1NC(C)=O	inactive: 0.902
N#CC1=C(N)OC2=C(C(=O)CCC2)C1c1ccoc1 (stereo not drawn)	inactive: 0.999
CC1=NN(c2nnn[nH]2)C(=O)/C1=C\c1cccs1	inactive: 1.05
NC(=O)c1nc(S)n(Cc2ccco2)c1N	inactive: 1.26
O=[N+]([O-])c1cccc(C2NNC(=S)S2)c1 (stereo not drawn)	inactive: 1.02
CCOCc1cc(C)[nH]c(=O)c1C#N	inactive: 1.13
Nc1nccc(-c2ccc(C(F)(F)F)cc2)n1	inactive: 1.2

SMILES	cell-surface Lgr5 expression
c1cc(C2=N[C@@H](c3ccncc3)[C@@H](c3ccncc3)N2)ccn1	inactive: 0.804
O=[N+]([O-])c1ccc(Nc2cccc3ccccc23)c([N+](=O)[O-])c1	inactive: 1.21
O=C1CCC=C1CSc1ccccc1	inactive: 1.15
OCC(O)C(O)C(O)c1cnn(-c2ccccc2)n1 (stereo not drawn)	inactive: 1.19
O=S(=O)([O][Na])c1cc(O)c2cc(O)ccc2c1	inactive: 1.43
O=C(CCCCCCCC(=O)NNC(=O)c1cccs1)NNC(=O)c1cccs1	inactive: 1.04
C(=N\Nc1nc(N2CCOCC2)nc(N2CCOCC2)n1)/c1ccccn1	inactive: 0.939
CCN1CCN(c2cc3c(nn2)Oc2ccccc2N3C)CC1	inactive: 1.39
CC1=Nc2ccc(-c3ccccc3)cc2C1(C)C	inactive: 0.934
CSc1ccc(/C=N\N2CCN(C3c4ccccc4-c4ccccc43)CC2)cc1	inactive: 1.18
CN(C)C(=O)N1CCN(C(=O)N(C)C)CC1	inactive: 0.995
O=C1NC(=S)S/C1=C/c1ccc(-c2ccc3c(c2)C(=O)NC3=O)o1	inactive: 1.42
O=C(CCCC(=O)NC1CCCCC1)NC1CCCCC1	inactive: 1.23
CCCNc1nc(N2CCCC2)nc(N2CCCC2)n1	active: 2.05
CCCCc1nn(-c2ccccc2)[n+](-c2ccccc2)n1.[Br-]	inactive: 1.09
CC1CCC2(CC1)C(C(=O)C13CC4CC(CC(C4)C1)C3)C2(C#N)C#N (stereo not drawn)	inactive: 1.09
CN1CCOC1c1cccc(Cl)c1 (stereo not drawn)	inactive: 1.07
O=C(/C=C\c1ccco1)NCCCn1cc(Br)cn1	inactive: 1.19
N=c1c(C(N)=S)cnc2ccccn12	inactive: 1.15
S=C(c1ccncc1)N1CCOCC1	inactive: 1.18
CC1(C)CC2(CCO1)OC(=O)CC2C(=O)O (stereo not drawn)	inactive: 1.26
CCn1cc(Cl)c(C(=O)NC(Cn2cccn2)C(C)(C)C)n1 (stereo not drawn)	inactive: 1.11

SMILES	cell-surface Lgr5 expression
CC1CCCC(N2CCN(C(C)C)CC2)C1 (stereo not drawn)	inactive: 1.28
Cc1cc2c(c(=O)[nH]1)C(=O)O/C2=C\c1c[nH]nc1-c1cccs1	inactive: 1.17
CC1=CN2C3=C(C(=O)CCC3)C3(OC2C=C1)C(=O)c1ccccc1C3=O (stereo not drawn)	inactive: 1.37
COc1ccc2c3c(ccc2c1)-c1[nH]c2ccccc2c1CC3	inactive: 1.17
S=c1[nH]c2cc(Cl)ccc2o1	inactive: 1.24
O=C1NN(c2ccccc2)C(=O)/C1=C/c1ccco1	inactive: 1.05
c1ccc(-c2ccc3[nH]cnc3c2-c2ccccc2)cc1	inactive: 1.23
CC(=O)OCC1OC(n2cnc3c(=O)[nH]cnc32)C(OC(C)=O)C1OC(C)=O (stereo not drawn)	inactive: 1.12
O=S1(=O)N=C(NCCCN2CCOCC2)c2ccccc21	inactive: 0.946
CC(=O)c1sc(N)nc1C	inactive: 1.29
N/C(CSc1nc(-c2ccccc2)c(-c2ccccc2)o1)=N/O	inactive: 0.804
O=[N+]([O-])/C=C\c1cccs1	inactive: 1.35
c1ccc2[nH]c(CSc3nnc4[nH]c5ccccc5n34)nc2c1	inactive: 1.53
O=[N+]([O-])c1ccc(/C=N\c2cc(Cl)cc(Cl)c2)s1	active: 2.38
C(C)(C)(C1=NC(CO1)[c@@]1ccccc1)C1=NC(CO1)[c@@]1ccccc1 (stereo not drawn)	inactive: 1.16
CC(C)N1CC=C2C(C#N)=C(N)C(C#N)(C#N)[C@@H](c3ccsc3)[C@@H]2C1	inactive: 0.971
CC(C)COc1ccc2c(c1)c1c3n2CCNC3CCC1.Cl (stereo not drawn)	inactive: 1.37
O=[N+]([O-])/C(=C\Sc1ccccn1)c1ccccc1	inactive: 1.01
Cc1ccc(C2=NNC3(CCCCC3)S2)cc1	inactive: 1.26
CCOC(=O)c1c(N)nc2n1CCC2	inactive: 0.962
COCCNS(=O)(=O)c1cc(Cl)ccc1Cl	inactive: 1.34
CN(Cc1cccs1)C(=S)SCCO	inactive: 1.14

SMILES	cell-surface Lgr5 expression
Cn1c2ccccc2n2nc3nc[nH]c(=O)c3c12	inactive: 0.923
FC(F)(F)c1ccccc1CN1CCN(CC2CC3C=CC2C3)CC1 (stereo not drawn)	inactive: 1.39
N#Cc1sc2nc3c(cc2c1N)CCC3	inactive: 1.31
CCn1cc([N+](=O)[O-])c(-c2nc(-c3cccs3)no2)n1	inactive: 1.17
CC1(C)CC(=O)C(C(C2=C(O)CC(C)(C)CC2=O)c2ccc(Br)s2)C(=O)C1 (stereo not drawn)	inactive: 1.73
O=C(O)c1cc(C2CCCCC2)no1	inactive: 1.1
Nc1nc(SCc2ccc(F)cc2)ns1	inactive: 1.24
CSc1nc2ccccc2c(=O)n1O	inactive: 0.844
COCc1[nH]nc2c1C1(CCN(C)CC1)C(C#N)=C(N)O2	inactive: 1.15
c1ccc(Oc2ccc3c(c2)c2c4n3CCNC4CCC2)cc1 (stereo not drawn)	inactive: 0.903
CNC(=S)NNC(=O)C12CC3CC(CC(C3)C1)C2	inactive: 1.4
O=C(O)CCCN1C(=O)CSC1=S	inactive: 1.36
O=[N+]([O-])c1cc(Oc2ccc3c(c2)CCC3)cc(-n2cnnn2)c1	inactive: 1.07
O=[N+]([O-])c1ccc(Nc2ccc(O)cc2)c([N+](=O)[O-])c1	inactive: 0.886
N#CC1=C(N)OC2=C(C(=O)CCC2)C12CCC1(CC2)OCCO1	inactive: 1.09
NC(=O)C1(N2CCCCC2)CCCCC1	inactive: 1.04
Brc1ccc(-c2cnc3ncccc3n2)cc1	inactive: 0.869
CSc1nc(N)nc2sc3c(O)cc(=O)[nH]c3c12	inactive: 0.973
O=C(O)CCCCCN1C(=O)CSC1=S	inactive: 1.17
O=C(O)/C=C\C=C/c1ccco1	inactive: 1.22
Brc1ccc(/N=N/c2ccc(Br)cn2)nc1	inactive: 1.38
CS/C(=N\C#N)Nc1ccc(Cl)cc1	inactive: 1.09

20 structures out of the list, sorted by formula weight, descending:
SMILES	cell-surface Lgr5 expression
CC1(C)CC(=O)C(C(C2=C(O)CC(C)(C)CC2=O)c2ccc(Br)s2)C(=O)C1 (stereo not drawn)	inactive: 1.73
FC(F)(F)c1ccccc1CN1CCN(CC2CC3C=CC2C3)CC1 (stereo not drawn)	inactive: 1.39
Brc1ccc(/N=N/c2ccc(Br)cn2)nc1	inactive: 1.38
O=[N+]([O-])c1cc(Oc2ccc3c(c2)CCC3)cc(-n2cnnn2)c1	inactive: 1.07
N#CC1=C(N)OC2=C(C(=O)CCC2)C12CCC1(CC2)OCCO1	inactive: 1.09
c1ccc(Oc2ccc3c(c2)c2c4n3CCNC4CCC2)cc1 (stereo not drawn)	inactive: 0.903
CCn1cc([N+](=O)[O-])c(-c2nc(-c3cccs3)no2)n1	inactive: 1.17
COCc1[nH]nc2c1C1(CCN(C)CC1)C(C#N)=C(N)O2	inactive: 1.15
Brc1ccc(-c2cnc3ncccc3n2)cc1	inactive: 0.869
CSc1nc(N)nc2sc3c(O)cc(=O)[nH]c3c12	inactive: 0.973
O=[N+]([O-])c1ccc(Nc2ccc(O)cc2)c([N+](=O)[O-])c1	inactive: 0.886
O=C(O)CCCCCN1C(=O)CSC1=S	inactive: 1.17
Nc1nc(SCc2ccc(F)cc2)ns1	inactive: 1.24
Cn1c2ccccc2n2nc3nc[nH]c(=O)c3c12	inactive: 0.923
CS/C(=N\C#N)Nc1ccc(Cl)cc1	inactive: 1.09
O=C(O)CCCN1C(=O)CSC1=S	inactive: 1.36
N#Cc1sc2nc3c(cc2c1N)CCC3	inactive: 1.31
NC(=O)C1(N2CCCCC2)CCCCC1	inactive: 1.04
CSc1nc2ccccc2c(=O)n1O	inactive: 0.844
O=C(O)c1cc(C2CCCCC2)no1	inactive: 1.1

Carrying on:

SMILES	cell-surface Lgr5 expression
[O-]c1cc(O)c2sc3nc(-c4cccs4)cc(-c4cccs4)c3c2n1	inactive: 1.3
O=C(N1CCN(S(=O)(=O)c2ccc(Br)s2)CC1)C12CC3CC(CC(C3)C1)C2	inactive: 0.932
O=S(=O)(NCCC1CCCC1)c1cccc2c(S(=O)(=O)NCCC3CCCC3)cccc12	inactive: 1.13
O=C1c2ccccc2C(=O)N1CSc1nc2ccccc2s1	inactive: 1.17
Fc1ccc(-c2csc(S)n2)cc1	active: 2.38
O=[N+]([O-])c1ccc(Sc2cccs2)c([N+](=O)[O-])c1	inactive: 1.25
COC(=O)c1ccn(Cn2cc(Br)cn2)n1	inactive: 1.16
O=[N+]([O-])c1cccc(NC2OC(CO)C(O)C2O)c1 (stereo not drawn)	inactive: 1.07
CCN(CC)c1ccc(C2NN=C(c3ccc(C)cc3)S2)cc1 (stereo not drawn)	inactive: 0.948
CC(C)(C)c1ccc(S(=O)(=O)C(C)(C)C)cc1	inactive: 1.2
Cc1cc2c(c(=O)o1)C(c1cccs1)C(C#N)=C(N)O2 (stereo not drawn)	inactive: 1.31
O=S(=O)(Nc1cc(Cl)ccc1Cl)c1cccs1	inactive: 1.15
O=S(=O)(Nc1cc(Cl)cc(Cl)c1)c1cccs1	inactive: 1.1
Cc1sc2nc(C)n(NC(N)=O)c(=O)c2c1C	inactive: 1.07
O=C1C=C/C(=C\c2ccc(Br)o2)O1	inactive: 1.53
O=C(C1CC1)N1CCc2ccccc21	inactive: 0.798
Fc1ccc(/C=N/n2c(S)nnc2-c2cccnc2)cc1	inactive: 1.06
Cc1occc1C(=O)NNC(=O)C(F)(F)F	inactive: 1.1
O=C1OCc2c1[nH]c(=O)[nH]c2=O	inactive: 1.29
COc1cc(S(=O)(=O)NCCOC23CC4CC(CC(C4)C2)C3)c(OC)cc1Cl	inactive: 1.1
